The text below walks through data of PubChem BioAssay AID2685 (National Center for Advancing Translational Sciences (NCATS), 2010).

A short description of this experiment: qHTS Assay for Lipid Storage Modulators in Drosophila S3 Cells.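 On cell number change: cells counted by Cell Tracker Red CMTPX staining in the red channel.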 Conditions: BODIPY lipid droplet fluorescence, 18-24 h; for cell number change: measured here: cell count max response, cells fed with added oleic acid. A digest of the protocol: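 Drosophila S3 cells loaded with oleic acid (400 uM, as added) and compounds at several concentrations; lipid droplets imaged by 488-nm laser-scanning cytometry, 500–530 nm intensity and object ratio to cell channel. Percent activity normalized to 20 uM Triacsin C.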

Where [1] appears, read: measured here: lipid fluorescence (Fed channel) AC50, cells fed with added oleic acid.
Where [2] appears, read: measured here: cell number channel AC50, cells fed with added oleic acid.

Molecules are shown by their SMILES. This is one part of the list. Shown are side measurements of this screen, not its main read-out; they come without a call. Most of these compounds were active or inconclusive in the main read-out, so they are no random draw. The note in brackets gives the kind of curve behind each potency; many fits are weak.

In the case of `CC(=O)c1cccc(CN2CCC(C(=O)Nc3ccc(-c4cccc(C)c4)cc3)CC2)c1`, the cell number change is -26.2%. The AC50 – broadly, the midpoint of the concentration-response curve, whichever way the signal moves – under setting [1] is 29.1 µM [falling, single point].

Consider `CN(C)C(=O)COC(=O)/C=C/c1cn(-c2ccccc2)nc1-c1cccs1`, for which the half-maximal activity concentration (AC50) under setting [2] was 1.46 µM [rising, partial curve].

Regarding `CCCCOc1ccc(C(=O)Nc2cccc(-n3cnnn3)c2)cc1OC`, the cell number change is 4.96%. The AC50 under setting [1] was 13 µM [rising, partial curve].

With `Cc1csc(C(=O)O)c1-n1cccc1`, the cell number change was -66.8%. Also, the half-maximal activity concentration (AC50) under setting [2] is 29.1 µM [falling, single point].

For `O=C(Cc1c[nH]c2ccccc12)Nc1ccccc1N1CCOCC1`, the cell number change was -29.2%. Also, the AC50 under setting [2] was 0.116 µM [rising, partial curve, poor fit].

With `Cc1ccc(C(=O)NC(=S)NNC(=O)c2ccccc2)cc1`, the cell number change is -10.8%. The AC50 under setting [1] is 29.1 µM [falling, single point].

As to `S=C(Cc1cccnc1)N1CCOCC1`, the cell number change was -21.6%. Moreover, under setting [1], the AC50 is 0.0291 µM [falling, partial curve, poor fit].

`Cc1c(Br)cc(C(=O)OC2CCN(C)CC2)c(C)c1C`: the AC50 is 0.116 µM [falling, full curve] under setting [2] and 0.82 µM [falling, full curve] under setting [1].

As to `Cc1cc(NC(=O)CSc2ccc(-c3ccc(Br)cc3)nn2)no1`, the cell number change was 100%. Also, the half-maximal activity concentration (AC50) under setting [2] was 29.1 µM [rising, single point]. Also, under setting [1], the AC50 is 16.4 µM [rising, partial curve, poor fit].

With `Cc1ccc2nc(SCC(=O)N3c4ccccc4CC3C)c(C)cc2c1` (stereo not given), the cell number change was -13.3%. Also, under setting [2], the concentration at half-maximal activity (AC50) is 6.51 µM [rising, single point]. The AC50 under setting [1] was 3.26 µM [rising, partial curve].

As to `COc1ccc(-c2cc3ccc(OCC(C)=O)cc3oc2=O)cc1`, the cell number change was -2.09%. Besides, the half-maximal activity concentration (AC50) under setting [1] was 14.6 µM [rising, single point].

As for `COc1ccc(OC)c(/C(O)=C/C(=O)C(=O)Nc2cc(C)ccc2OC)c1`, the cell number change is -1.2%. In addition, the AC50 under setting [1] was 0.731 µM [falling, single point].

Turning to `CCOc1nc(-c2ccccc2Cl)nc2ccccc12`, the cell number change was -4.68%. Moreover, the AC50 under setting [2] is 6.51 µM [rising, single point].

Consider `CCCCNC(=O)c1ccccc1NC(=O)c1ccc2c(c1)OCO2`, for which the cell number change was 65.6%. Further, the concentration at half-maximal activity (AC50) under setting [2] was 2.06 µM [falling, partial curve]. In addition, the concentration at half-maximal activity (AC50) under setting [1] is 2.06 µM [falling, partial curve].

Consider `CC(OC(=O)c1ccc(-n2cnnn2)cc1)C(=O)Nc1ccccc1F` (stereo not given), for which the cell number change came out at 11.4%. In addition, the AC50 under setting [2] was 0.731 µM [falling, single point]. For the same compound, under setting [1], the half-maximal activity concentration (AC50) is 0.82 µM [falling, partial curve, poor fit].

As for `Cc1cc(N2CCOCC2)ccc1/C=C1\NC(=O)N(Cc2ccccc2)C1=O`, the concentration at half-maximal activity (AC50) under setting [1] is 2.59 µM [rising, partial curve, poor fit].

On to `O=C1C2C3C=CC(C3)C2C(=O)N1/N=C/c1cn(Cc2ccc(F)cc2)c2ccccc12` (stereo not given), for which the cell number change is -18.3%.

Regarding `COC(=O)c1ccc(NC(CC(C)C)C(=O)OC)c([N+](=O)[O-])c1` (stereo not given), the cell number change worked out at 10.6%.

As for `Cc1ccc(C(=O)NCC(=O)NCC(c2cccs2)N2CCOCC2)cc1C` (stereo not given), the cell number change was -20.7%. Under setting [1], the concentration at half-maximal activity (AC50) was 0.103 µM [rising, full curve, poor fit].

Take `Cc1ccc2c(c1)C(O)(CC(=O)/C=C/C=C/c1ccccc1)C(=O)N2` (stereo not given): the cell number change was -22.9%. The AC50 under setting [1] was 2.31 µM [rising, single point].

As for `CC(=O)Nc1cccc(-c2csc(Nc3cc(C)ccn3)n2)c1`, under setting [2], the AC50 was 0.82 µM [rising, full curve].

On to `Cc1nc2ccccc2cc1C(=O)N/N=C/c1cccs1`, for which the cell number change is -17%. In addition, the AC50 under setting [2] was 0.103 µM [falling, full curve, poor fit].

Regarding `COc1ccccc1CCNC(=O)C(=O)c1cn(CC(=O)N2CCOCC2)c2ccccc12`, the cell number change was found to be 13.3%. The AC50 under setting [1] is 29.1 µM [falling, single point].

On to `Cc1cc(C)n(-c2ncnc3c2oc2ccccc23)n1`, for which the cell number change is -4.72%. For the same compound, under setting [1], the concentration at half-maximal activity (AC50) was 0.00517 µM [rising, full curve, poor fit].

Consider `COc1ccc(CNC(=O)CCCn2c(=S)[nH]c3cc4c(cc3c2=O)OCO4)cc1`, for which the cell number change was 121%. The AC50 under setting [2] is 20.6 µM [rising, single point]. Further, the AC50 under setting [1] was 29.1 µM [rising, single point].

For `O=C(CC1CCCCC1)c1c(O)c2ccccc2oc1=O`, the concentration at half-maximal activity (AC50) under setting [1] is 29.1 µM [falling, single point].

For `CCCCCOC(=O)C1=C(C)NC(=O)NC1c1ccc([N+](=O)[O-])cc1` (stereo not given), the cell number change was -22.6%. For the same compound, under setting [1], the AC50 is 29.1 µM [falling, single point].

Consider `O=c1ccc2cc(S(=O)(=O)Nc3ccccc3F)ccc2o1`, for which the cell number change is -1.66%.

Regarding `C=CCn1c(SCC(=O)NNC(=S)Nc2ccccc2)nnc1-c1ccccc1`, the cell number change stood at 5.29%. In addition, the concentration at half-maximal activity (AC50) under setting [1] is 0.82 µM [rising, full curve].

On to `Cc1ccccc1S(=O)(=O)Nc1ncnc2scc(-c3ccccc3)c12`, for which the cell number change was found to be 36.6%. Further, the half-maximal activity concentration (AC50) under setting [2] is 10.3 µM [rising, partial curve]. The AC50 under setting [1] was 2.59 µM [rising, partial curve].

On to `CCCCC(=O)OCC(=O)c1[nH]c(C)c(C(C)=O)c1C`, for which the cell number change worked out at 34.5%. The AC50 under setting [2] is 4.11 µM [rising, full curve, poor fit]. Under setting [1], the AC50 was 20.6 µM [rising, single point].

For `Cc1ccc(-c2nc(-c3cccnc3)sc2CC(=O)Nc2ccc3nc(C)sc3c2)cc1`, the cell number change was determined as 39.4%. Besides, the AC50 under setting [2] was 2.91 µM [rising, full curve]. Besides, the AC50 under setting [1] is 1.84 µM [rising, partial curve].

Turning to `O=C1CC(=O)c2c1cccc2[N+](=O)[O-]`, the AC50 under setting [1] is 0.731 µM [falling, full curve].

`Cc1ccc(C)c(OCC(=O)Nc2nonc2NC(=O)COc2cc(C)ccc2C)c1`: the cell number change is -49.9%. Moreover, the half-maximal activity concentration (AC50) under setting [2] was 18.4 µM [falling, single point]. For the same compound, the AC50 under setting [1] was 29.1 µM [falling, single point].

`Cc1cc(Nc2cccc(F)c2)nc(-c2ccccc2O)n1`: the cell number change is -9.63%. The half-maximal activity concentration (AC50) under setting [2] is 2.91 µM [rising, single point].

For `O=c1[nH]c(CN2CCCC2)nc2sc3c(c12)CCC3`, the cell number change is -11%. Besides, the concentration at half-maximal activity (AC50) under setting [1] is 1.84 µM [falling, full curve].

With `CCOC(=O)c1sc(NC(=O)CN(CC(C)C)CC(C)C)c(C(=O)OCC)c1C`, the cell number change is 4.03%. In addition, under setting [1], the half-maximal activity concentration (AC50) was 2.91 µM [rising, partial curve].
